Source: PubChem BioAssay AID504791 (Drosophila RNAi Screening Center, 2011)
Assay: 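Genes whose knock-down strengthens or weakens small-RNA reporter silencing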 (primary screen). Cells: Drosophila S2-derived reporter cells. Knock-down reagent: long dsRNA against Drosophila genes, about 150-250 ng dsRNA per well (siRNA assay); about 80-120 ng (miRNA assay). Timing: about 5 days (siRNA assay); about 4 days (miRNA assay). Challenge: copper sulfate induction of reporters: 25 µM (siRNA assay); 200 mM stated (miRNA assay), 1-2 days before reading. Detection: 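Per-well ratio of Renilla over firefly light, expressed relative to that plate's average ratio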. Direction: siRNA reporter hit score: higher = 3 marks a strong hit with raised ratio; -3 a strong hit with lowered ratio. Units: stable assay Renilla, run 1 in luminescence; stable assay firefly, run 1 in luminescence. Rule for the call: 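a well was a first-pass pick when its plate-scaled ratio rose above 1.5 (siRNA assay) or 1.6 (miRNA assay), or dropped below 0.6; a gene counted only if two separate dsRNAs agreed on retest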.
In all, the deposit lists about 23,000 reagents; this is an unselected part of those with a known target gene and a result. Of all reagents, 199 (0.86%) got an active call. 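Plate-scaled ratios behind the calls are not deposited; printed light signals are raw; many rows marked increased or decreased are still called inactive.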 A number with no mark means an inactive call.

What is on record for CG9270 [DRSC03182]?
stable assay Renilla, run 1: 9374; stable assay firefly, run 1: 7.53e5

With CG3287 (retired record) [DRSC04991], what does the deposit list?
stable assay Renilla, run 1: 7282; stable assay firefly, run 1: 5.66e5

How did the screen score CG5568 [DRSC10518]?
stable siRNA reporter change: reporter ratio raised past the hit cutoff; stable assay Renilla, run 1: 1364; stable assay firefly, run 1: 64776

How did the screen score CG5568 [DRSC22816]?
stable assay Renilla, run 1: 4671; stable assay firefly, run 1: 3.55e5

With raptor [DRSC18359], what does the deposit list?
siRNA reporter hit score: 3 (active); miRNA reporter change: reporter ratio lowered past the hit cutoff; stable assay Renilla, run 1: 4144; stable assay firefly, run 1: 2.91e5

With CG33310 [DRSC01897], what was measured?
stable assay Renilla, run 1: 7230; stable assay firefly, run 1: 3.49e5

With CG3191 [DRSC18530], what was measured?
stable assay Renilla, run 1: 3331; stable assay firefly, run 1: 3.41e5

For Adsl [DRSC15500], what was measured?
stable assay Renilla, run 1: 7054; stable assay firefly, run 1: 2.95e5

What did the screen give for CG31191 [DRSC13455]?
stable assay Renilla, run 1: 4915; stable assay firefly, run 1: 5.06e5

How did the screen score CG31191 [DRSC15214]?
stable assay Renilla, run 1: 7692; stable assay firefly, run 1: 3.15e5

What is on record for CG31191 [DRSC15215]?
stable assay Renilla, run 1: 5606; stable assay firefly, run 1: 2.55e5

What did the screen give for mRpL47 [DRSC16827]?
stable assay Renilla, run 1: 6315; stable assay firefly, run 1: 3.22e5

With CG13023 [DRSC09454], what was measured?
stable assay Renilla, run 1: 5578; stable assay firefly, run 1: 4.22e5

What did the screen give for CG13023 [DRSC09903]?
stable assay Renilla, run 1: 7235; stable assay firefly, run 1: 3.30e5

What is on record for CG3520 [DRSC04383]?
stable assay Renilla, run 1: 5900; stable assay firefly, run 1: 3.48e5

What did the screen give for CG13506 [DRSC04150]?
stable assay Renilla, run 1: 6730; stable assay firefly, run 1: 5.10e5

For Nf-YA [DRSC10385], how do the results read?
stable assay Renilla, run 1: 4983; stable assay firefly, run 1: 2.42e5

For Nf-YA [DRSC23126], what does the deposit list?
stable assay Renilla, run 1: 4199; stable assay firefly, run 1: 2.70e5

How did the screen score Ir52a [DRSC06262]?
stable assay Renilla, run 1: 7662; stable assay firefly, run 1: 4.34e5

For CG31495 [DRSC16762], what was measured?
stable assay Renilla, run 1: 6848; stable assay firefly, run 1: 2.98e5

For CG9973 (retired record) [DRSC08646], what does the deposit list?
stable assay Renilla, run 1: 6070; stable assay firefly, run 1: 2.96e5

How did the screen score CG9143 [DRSC07338]?
stable assay Renilla, run 1: 9687; stable assay firefly, run 1: 3.61e5

Which result is listed for Nxf3 [DRSC21749]?
stable assay Renilla, run 1: 9250; stable assay firefly, run 1: 4.09e5

Which result is listed for spn-F [DRSC14475]?
stable assay Renilla, run 1: 10115; stable assay firefly, run 1: 4.58e5

How did the screen score CG8837 [DRSC00711]?
stable assay Renilla, run 1: 7824; stable assay firefly, run 1: 3.81e5

With sdk [DRSC18831], how do the results read?
stable assay Renilla, run 1: 8347; stable assay firefly, run 1: 5.22e5

What did the screen give for CG32413 [DRSC21591]?
stable assay Renilla, run 1: 8637; stable assay firefly, run 1: 5.39e5

With CSN3 [DRSC11859], what does the deposit list?
miRNA reporter change: reporter ratio lowered past the hit cutoff (active); stable assay Renilla, run 1: 4356; stable assay firefly, run 1: 2.63e5

Targets listed so far whose target name starts with S or s (2):
spn-F [DRSC14475]: stable assay Renilla, run 1 = 10115; stable assay firefly, run 1 = 4.58e5
sdk [DRSC18831]: stable assay Renilla, run 1 = 8347; stable assay firefly, run 1 = 5.22e5
